{"source": "PubChem BioAssay AID1508597 (Cure First, 2020)", "aim": "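Genes whose silencing sensitises or protects ovarian cancer cells against rucaparib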 (primary screen)", "system": "human ovarian carcinoma lines grown from tumours: OCI-P5x (papillary serous) and OCI-C5x (clear cell)", "reagents": "siRNA pool against human genes, 1.25 pmol siRNA per well", "time to read-out": "72 h or 96 h, depending on the cell culture", "conditions": "rucaparib 20 µM (about IC30) or vehicle, present until read-out", "detection": "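ATP luminescence measured at 72 or 96 h according to the culture, then normalised and expressed as percent viability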", "direction": "viability, normalised: higher = more viable cells remaining", "hit rule": "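a well counts as a hit if its normalised viability is under 80 percent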", "calls": "active = viability under 80%; inactive = viability 80% or more", "note": "The deposit covers about 2,100 reagents; shown is a part drawn at random. 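Calls flag viability under 80% in either arm, not effects specific to rucaparib; the reference for percent is not stated.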 No sequences are given here. Not given: the 100% reference."}
{"gene": "LCK", "rucaparib or vehicle": "Rucaparib", "cell line": "OCI-C5x (clear cell)", "technical replicate": "1", "viability, normalised (%)": 52.9, "activity call": "active"}
{"gene": "LCK", "rucaparib or vehicle": "Rucaparib", "cell line": "OCI-C5x (clear cell)", "technical replicate": "2", "viability, normalised (%)": 60.4, "activity call": "active"}
{"gene": "LCK", "rucaparib or vehicle": "Rucaparib", "cell line": "OCI-C5x (clear cell)", "technical replicate": "3", "viability, normalised (%)": 59.4, "activity call": "active"}
{"gene": "LCK", "rucaparib or vehicle": "Rucaparib", "cell line": "OCI-P5x (serous)", "technical replicate": "1", "viability, normalised (%)": 94.2, "activity call": "inactive"}
{"gene": "LCK", "rucaparib or vehicle": "Rucaparib", "cell line": "OCI-P5x (serous)", "technical replicate": "2", "viability, normalised (%)": 99.8, "activity call": "inactive"}
{"gene": "LCK", "rucaparib or vehicle": "Rucaparib", "cell line": "OCI-P5x (serous)", "technical replicate": "3", "viability, normalised (%)": 85.7, "activity call": "inactive"}
{"gene": "LCK", "rucaparib or vehicle": "Vehicle", "cell line": "OCI-C5x (clear cell)", "technical replicate": "1", "viability, normalised (%)": 65, "activity call": "active"}
{"gene": "LCK", "rucaparib or vehicle": "Vehicle", "cell line": "OCI-C5x (clear cell)", "technical replicate": "2", "viability, normalised (%)": 72.3, "activity call": "active"}
{"gene": "LCK", "rucaparib or vehicle": "Vehicle", "cell line": "OCI-C5x (clear cell)", "technical replicate": "3", "viability, normalised (%)": 64.2, "activity call": "active"}
{"gene": "LCK", "rucaparib or vehicle": "Vehicle", "cell line": "OCI-P5x (serous)", "technical replicate": "1", "viability, normalised (%)": 90.8, "activity call": "inactive"}
{"gene": "LCK", "rucaparib or vehicle": "Vehicle", "cell line": "OCI-P5x (serous)", "technical replicate": "2", "viability, normalised (%)": 88.1, "activity call": "inactive"}
{"gene": "LCK", "rucaparib or vehicle": "Vehicle", "cell line": "OCI-P5x (serous)", "technical replicate": "3", "viability, normalised (%)": 85.4, "activity call": "inactive"}
{"gene": "TFAP2A", "rucaparib or vehicle": "Rucaparib", "cell line": "OCI-C5x (clear cell)", "technical replicate": "1", "viability, normalised (%)": 62, "activity call": "active"}
{"gene": "TFAP2A", "rucaparib or vehicle": "Rucaparib", "cell line": "OCI-C5x (clear cell)", "technical replicate": "2", "viability, normalised (%)": 72, "activity call": "active"}
{"gene": "TFAP2A", "rucaparib or vehicle": "Rucaparib", "cell line": "OCI-C5x (clear cell)", "technical replicate": "3", "viability, normalised (%)": 60.6, "activity call": "active"}
{"gene": "TFAP2A", "rucaparib or vehicle": "Rucaparib", "cell line": "OCI-P5x (serous)", "technical replicate": "1", "viability, normalised (%)": 69.2, "activity call": "active"}
{"gene": "TFAP2A", "rucaparib or vehicle": "Rucaparib", "cell line": "OCI-P5x (serous)", "technical replicate": "2", "viability, normalised (%)": 73.2, "activity call": "active"}
{"gene": "TFAP2A", "rucaparib or vehicle": "Rucaparib", "cell line": "OCI-P5x (serous)", "technical replicate": "3", "viability, normalised (%)": 92.8, "activity call": "inactive"}
{"gene": "TFAP2A", "rucaparib or vehicle": "Vehicle", "cell line": "OCI-C5x (clear cell)", "technical replicate": "1", "viability, normalised (%)": 52.7, "activity call": "active"}
{"gene": "TFAP2A", "rucaparib or vehicle": "Vehicle", "cell line": "OCI-C5x (clear cell)", "technical replicate": "2", "viability, normalised (%)": 57.3, "activity call": "active"}
{"gene": "TFAP2A", "rucaparib or vehicle": "Vehicle", "cell line": "OCI-C5x (clear cell)", "technical replicate": "3", "viability, normalised (%)": 49.3, "activity call": "active"}
{"gene": "TFAP2A", "rucaparib or vehicle": "Vehicle", "cell line": "OCI-P5x (serous)", "technical replicate": "1", "viability, normalised (%)": 77.4, "activity call": "active"}
{"gene": "TFAP2A", "rucaparib or vehicle": "Vehicle", "cell line": "OCI-P5x (serous)", "technical replicate": "2", "viability, normalised (%)": 73.9, "activity call": "active"}
{"gene": "TFAP2A", "rucaparib or vehicle": "Vehicle", "cell line": "OCI-P5x (serous)", "technical replicate": "3", "viability, normalised (%)": 82.8, "activity call": "inactive"}

Next part; the last 4 above are carried over.
{"gene": "TFAP2A", "rucaparib or vehicle": "Vehicle", "cell line": "OCI-C5x (clear cell)", "technical replicate": "3", "viability, normalised (%)": 49.3, "activity call": "active"}
{"gene": "TFAP2A", "rucaparib or vehicle": "Vehicle", "cell line": "OCI-P5x (serous)", "technical replicate": "1", "viability, normalised (%)": 77.4, "activity call": "active"}
{"gene": "TFAP2A", "rucaparib or vehicle": "Vehicle", "cell line": "OCI-P5x (serous)", "technical replicate": "2", "viability, normalised (%)": 73.9, "activity call": "active"}
{"gene": "TFAP2A", "rucaparib or vehicle": "Vehicle", "cell line": "OCI-P5x (serous)", "technical replicate": "3", "viability, normalised (%)": 82.8, "activity call": "inactive"}
{"gene": "IKZF1", "rucaparib or vehicle": "Rucaparib", "cell line": "OCI-C5x (clear cell)", "technical replicate": "1", "viability, normalised (%)": 65.2, "activity call": "active"}
{"gene": "IKZF1", "rucaparib or vehicle": "Rucaparib", "cell line": "OCI-C5x (clear cell)", "technical replicate": "2", "viability, normalised (%)": 41.7, "activity call": "active"}
{"gene": "IKZF1", "rucaparib or vehicle": "Rucaparib", "cell line": "OCI-C5x (clear cell)", "technical replicate": "3", "viability, normalised (%)": 51.8, "activity call": "active"}
{"gene": "IKZF1", "rucaparib or vehicle": "Rucaparib", "cell line": "OCI-P5x (serous)", "technical replicate": "1", "viability, normalised (%)": 70.3, "activity call": "active"}
{"gene": "IKZF1", "rucaparib or vehicle": "Rucaparib", "cell line": "OCI-P5x (serous)", "technical replicate": "2", "viability, normalised (%)": 61, "activity call": "active"}
{"gene": "IKZF1", "rucaparib or vehicle": "Rucaparib", "cell line": "OCI-P5x (serous)", "technical replicate": "3", "viability, normalised (%)": 68.7, "activity call": "active"}
{"gene": "IKZF1", "rucaparib or vehicle": "Vehicle", "cell line": "OCI-C5x (clear cell)", "technical replicate": "1", "viability, normalised (%)": 71.1, "activity call": "active"}
{"gene": "IKZF1", "rucaparib or vehicle": "Vehicle", "cell line": "OCI-C5x (clear cell)", "technical replicate": "2", "viability, normalised (%)": 33, "activity call": "active"}
{"gene": "IKZF1", "rucaparib or vehicle": "Vehicle", "cell line": "OCI-C5x (clear cell)", "technical replicate": "3", "viability, normalised (%)": 70.9, "activity call": "active"}
{"gene": "IKZF1", "rucaparib or vehicle": "Vehicle", "cell line": "OCI-P5x (serous)", "technical replicate": "1", "viability, normalised (%)": 70, "activity call": "active"}
{"gene": "IKZF1", "rucaparib or vehicle": "Vehicle", "cell line": "OCI-P5x (serous)", "technical replicate": "2", "viability, normalised (%)": 58.3, "activity call": "active"}
{"gene": "IKZF1", "rucaparib or vehicle": "Vehicle", "cell line": "OCI-P5x (serous)", "technical replicate": "3", "viability, normalised (%)": 85.8, "activity call": "inactive"}
{"gene": "CUBN", "rucaparib or vehicle": "Rucaparib", "cell line": "OCI-C5x (clear cell)", "technical replicate": "1", "viability, normalised (%)": 47.6, "activity call": "active"}
{"gene": "CUBN", "rucaparib or vehicle": "Rucaparib", "cell line": "OCI-C5x (clear cell)", "technical replicate": "2", "viability, normalised (%)": 46.5, "activity call": "active"}
{"gene": "CUBN", "rucaparib or vehicle": "Rucaparib", "cell line": "OCI-C5x (clear cell)", "technical replicate": "3", "viability, normalised (%)": 41.2, "activity call": "active"}
{"gene": "CUBN", "rucaparib or vehicle": "Rucaparib", "cell line": "OCI-P5x (serous)", "technical replicate": "1", "viability, normalised (%)": 67, "activity call": "active"}
{"gene": "CUBN", "rucaparib or vehicle": "Rucaparib", "cell line": "OCI-P5x (serous)", "technical replicate": "2", "viability, normalised (%)": 65.9, "activity call": "active"}
{"gene": "CUBN", "rucaparib or vehicle": "Rucaparib", "cell line": "OCI-P5x (serous)", "technical replicate": "3", "viability, normalised (%)": 59.9, "activity call": "active"}
{"gene": "CUBN", "rucaparib or vehicle": "Vehicle", "cell line": "OCI-C5x (clear cell)", "technical replicate": "1", "viability, normalised (%)": 27.6, "activity call": "active"}
{"gene": "CUBN", "rucaparib or vehicle": "Vehicle", "cell line": "OCI-C5x (clear cell)", "technical replicate": "2", "viability, normalised (%)": 40, "activity call": "active"}
{"gene": "CUBN", "rucaparib or vehicle": "Vehicle", "cell line": "OCI-C5x (clear cell)", "technical replicate": "3", "viability, normalised (%)": 39.8, "activity call": "active"}
{"gene": "CUBN", "rucaparib or vehicle": "Vehicle", "cell line": "OCI-P5x (serous)", "technical replicate": "1", "viability, normalised (%)": 57.6, "activity call": "active"}
{"gene": "CUBN", "rucaparib or vehicle": "Vehicle", "cell line": "OCI-P5x (serous)", "technical replicate": "2", "viability, normalised (%)": 78, "activity call": "active"}
{"gene": "CUBN", "rucaparib or vehicle": "Vehicle", "cell line": "OCI-P5x (serous)", "technical replicate": "3", "viability, normalised (%)": 73.8, "activity call": "active"}
